{
  "source": "patent US10792272B2",
  "about": "“Methods for treatment of Clostridium difficile infections” (priority 2016, dated 2020)",
  "system": "liver carcinoma HepG2",
  "experiment": "In vitro cytotoxicity MTS assay, HepG2",
  "details": "HepG2 and HEK 293T/17; MIC values of Table 1",
  "note": "Some of these results come from one statement about several compounds together.",
  "data": [
    {"smiles": "O=C(Nc1ccc(Oc2ccc(Cl)cc2)c(Cl)c1)c1cc(I)cc(I)c1O", "note": "[Rafoxanide, rafoxanide, reference compound]", "values": [
      {"measurement": "concentration without effect on mammalian cell viability (8 μg/mL) relative to MIC against C. difficile", "result": "≥ 32", "unit": "fold"}
    ]},
    {"smiles": "Cc1cc(C(C#N)c2ccc(Cl)cc2)c(Cl)cc1NC(=O)c1cc(I)cc(I)c1O", "note": "(centres unmarked) [Closantel, reference compound]", "values": [
      {"measurement": "concentration without effect on mammalian cell viability (8 μg/mL) relative to MIC against C. difficile", "result": "≥ 32", "unit": "fold"}
    ]}
  ]
}
